Experimental data published in PubChem BioAssay AID200 (DTP/NCI, 2004).
The list shows only some results of the screen, not a fair sample: it is rich in T/C values a quarter to a half above the control, in often repeated tests (any T/C) and in doses without a T/C. Other doses and runs of a compound stand elsewhere. T/C gives the treated animals as a percentage of the vehicle group. Some doses have a count of surviving animals in place of a T/C: the source files T/C as zero there, which appears to mark a toxic dose or a test without result, not a measured value. Some survivor counts are full or nearly so, which does not show that the dose was tolerated: survival well below the control is almost never listed, so the zero probably covers shortened survival too. Survivors were counted at the toxicity check, usually on the fifth day, unless a day is given; later deaths do not show. Schedule codes are those of the source, read here as Q, the interval in days (D) or hours (H), X, the number of doses. Some entries were tested several times; the values are given in rising order. Where survival is the endpoint, this PubChem deposit counts one and a half times the control or more as active, and values a quarter to a half above the control carry no call in these data; other NCI protocols may use other cut-offs. Some T/C values are followed by the survivors on the day toxicity was checked, most often the fifth; where none is given, no animal had died by that day.

Test system: B6C3F1 mice, B16 melanoma ip, median survival T/C
Test: NCI In Vivo Anticancer Drug Screen. Data for tumor model B16 Melanoma (intraperitoneal) in B6C3F1 mice
Conditions: T/C endpoint: median survival time, higher T/C = longer survival
Procedure, shortened: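 Tumor-bearing mice received test compound; a separate group got vehicle only. Survival was then compared, with results reported as treated over control.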

[1] = dose: 100.0 mg/kg/injection, schedule: Q01DX009 (ip), vehicle: saline
[2] = dose: 200.0 mg/kg/injection, schedule: Q01DX009 (ip), vehicle: saline
[3] = dose: 25.0 mg/kg/injection, schedule: Q01DX009 (ip), vehicle: saline with Tween-80
[4] = dose: 100.0 mg/kg/injection, schedule: Q01DX009 (ip), vehicle: saline with Tween-80
[5] = dose: 200.0 mg/kg/injection, schedule: Q01DX009 (ip), vehicle: saline with Tween-80

Q: Which T/C (dose: 100.0 mg/kg/injection, schedule: Q01DX009 (ip), vehicle: distilled water + Tween-80) does the source give for `CCOc1ccc(C(C)c2cc3c(cc2OC)OCO3)cc1` (stereo not given) here?
A: 129 % of control

Q: And the survivor count (dose: 200.0 mg/kg/injection, schedule: Q01DX009 (ip), vehicle: distilled water + Tween-80)?
A: 8 of 10

Q: And the survivor count (dose: 400.0 mg/kg/injection, schedule: Q01DX009 (ip), vehicle: distilled water + Tween-80)?
A: 3 of 10

Q: How did the survivor count (dose: 400.0 mg/kg/injection, schedule: Q01DX009 (ip), vehicle: water) turn out when `O=C(NO)c1cc(O)c(O)c(O)c1` was run?
A: 9 of 10

Q: And the survivor count (dose: 800.0 mg/kg/injection, schedule: Q01DX009 (ip), vehicle: water)?
A: 0 of 10

Q: For `O=NN(CCCl)C(=O)NC1CCC(=O)NC1=O` (stereo not given), which T/C (dose: 1.6 mg/kg/injection, schedule: Q01DX005 (iv), vehicle: saline + alcohol) is on record?
A: 128 % of control

Q: What about the T/C (dose: 4.0 mg/kg/injection, schedule: Q01DX001 (ip), vehicle: saline + alcohol) of the same compound?
A: 142 % of control

Q: What about the T/C (dose: 4.0 mg/kg/injection, schedule: Q01DX001 (iv), vehicle: saline + alcohol) of the same compound?
A: 126 % of control

Q: And the T/C (dose: 4.0 mg/kg/injection, schedule: Q01DX005 (oral), vehicle: saline + alcohol)?
A: 130 % of control

Q: What about the T/C (dose: 6.4 mg/kg/injection, schedule: Q01DX005 (iv), vehicle: saline + alcohol) of the same compound?
A: 137 % of control

Q: What about the T/C (dose: 8.0 mg/kg/injection, schedule: Q01DX001 (iv), vehicle: saline + alcohol) of the same compound?
A: 127 % of control

Q: And the T/C (dose: 8.0 mg/kg/injection, schedule: Q01DX001 (oral), vehicle: saline + alcohol)?
A: 132 % of control

Q: What about the survivor count (dose: 12.8 mg/kg/injection, schedule: Q01DX005 (ip), vehicle: saline + alcohol) of the same compound?
A: 10 of 10

Q: What about the survivor count (dose: 12.8 mg/kg/injection, schedule: Q01DX005 (iv), vehicle: saline + alcohol) of the same compound?
A: 10 of 10

Q: And the survivor count (dose: 16.0 mg/kg/injection, schedule: Q01DX005 (ip), vehicle: saline + alcohol)?
A: 10 of 10

Q: And the survivor count (dose: 16.0 mg/kg/injection, schedule: Q01DX005 (iv), vehicle: saline + alcohol)?
A: 10 of 10

Q: And the survivor count (dose: 16.0 mg/kg/injection, schedule: Q01DX005 (oral), vehicle: saline + alcohol)?
A: 10 of 10

Q: And the survivor count (dose: 32.0 mg/kg/injection, schedule: Q01DX001 (ip), vehicle: saline + alcohol)?
A: 10 of 10

Q: And the survivor count (dose: 32.0 mg/kg/injection, schedule: Q01DX001 (iv), vehicle: saline + alcohol)?
A: 9 of 10

Q: What about the survivor count (dose: 32.0 mg/kg/injection, schedule: Q01DX005 (ip), vehicle: saline + alcohol) of the same compound?
A: 10 of 10

Q: What about the survivor count (dose: 32.0 mg/kg/injection, schedule: Q01DX005 (iv), vehicle: saline + alcohol) of the same compound?
A: 9 of 10

Q: And the survivor count (dose: 32.0 mg/kg/injection, schedule: Q01DX005 (oral), vehicle: saline + alcohol)?
A: 9 of 10

Q: And the survivor count (dose: 64.0 mg/kg/injection, schedule: Q01DX001 (ip), vehicle: saline + alcohol)?
A: 10 of 10

Q: And the survivor count (dose: 64.0 mg/kg/injection, schedule: Q01DX001 (iv), vehicle: saline + alcohol)?
A: 10 of 10

Q: And the survivor count (dose: 64.0 mg/kg/injection, schedule: Q01DX001 (oral), vehicle: saline + alcohol)?
A: 9 of 10

Q: And the survivor count (dose: 64.0 mg/kg/injection, schedule: Q01DX005 (oral), vehicle: saline + alcohol)?
A: 7 of 10

Q: And the survivor count (dose: 128.0 mg/kg/injection, schedule: Q01DX001 (oral), vehicle: saline + alcohol)?
A: 9 of 10

Q: How did the survivor count [1] turn out when `CC(=O)/C(=C\c1ccc(Cl)c(Cl)c1)C(=O)CCN(C)C` was run?
A: 8 of 10

Q: And the survivor count [2]?
A: 0 of 10

Q: Which T/C [3] does the source give for `O=Cc1c(O)c2ccccc2[nH]c1=O` here?
A: 136 % of control

Q: And the T/C (dose: 50.0 mg/kg/injection, schedule: Q01DX009 (ip), vehicle: saline with Tween-80)?
A: 132 and 134 % of control

Q: And the T/C [4]?
A: 141 % of control

Q: And the survivor count [4]?
A: 8 of 10

Q: And the survivor count [5]?
A: 3 of 10 and 6 of 10

Q: What does the source list for `CCC(C(=O)O)C(=O)O.[NH-]CC1CCCC[N-]1.[Pt+2]`?
A: T/C (dose: 50.0 mg/kg/injection, schedule: Q01DX009 (ip), vehicle: saline): 140 % of control; T/C [1]: 129 % of control; T/C (dose: 100.0 mg/kg/injection, schedule: Q01DX009 (ip), vehicle: suspension in saline): 135 % of control [9 of 10 alive]; survivor count [2]: 0 of 10; survivor count (dose: 200.0 mg/kg/injection, schedule: Q01DX009 (ip), vehicle: suspension in saline): 2 of 10; survivor count (dose: 400.0 mg/kg/injection, schedule: Q01DX009 (ip), vehicle: suspension in saline): 1 of 10

Q: Which survivor count (dose: 256.0 mg/kg/injection, schedule: Q01DX009 (ip), vehicle: saline with Tween-80) does the source give for `Cc1c(O)ccc(=O)n1O` here?
A: 9 of 10

Q: What about the survivor count (dose: 512.0 mg/kg/injection, schedule: Q01DX009 (ip), vehicle: saline with Tween-80) of the same compound?
A: 6 of 10

Q: Which results are given for `CCCCCNc1ncnc2c(C)[nH]nc12`?
A: survivor count (dose: 200.0 mg/kg/injection, schedule: Q01DX009 (ip), vehicle: Klucel (hydroxypropylcellulose) (HPC)): 7 of 10; survivor count (dose: 400.0 mg/kg/injection, schedule: Q01DX009 (ip), vehicle: Klucel (hydroxypropylcellulose) (HPC)): 0 of 10

Q: Which results are given for `NS(=O)(=O)OCCCCCCCOS(N)(=O)=O`?
A: T/C [3]: 138 % of control; survivor count [4]: 10 of 10; survivor count [5]: 10 of 10

Q: `CC(C)C(NC(=O)OC(C)(C)C)C(=O)ON1C(=O)CCC1=O` (stereo not given) was tested. Which survivor count [5] did it give?
A: 10 of 10

Q: With `C=C1C(=O)OC2/C=C(\C)CC/C=C(/C)CC(OC(=O)/C(=C/CO)CO)C12` (stereo not given) as the compound, how does the survivor count (dose: 80.0 mg/kg/injection, schedule: Q01DX009 (ip), vehicle: Klucel (hydroxypropylcellulose) (HPC)) read?
A: 0 of 7

Q: Which T/C [3] does the source give for `COC1(OC)C2C=CC1CC2` here?
A: 130 % of control

Q: And the survivor count (dose: 400.0 mg/kg/injection, schedule: Q01DX009 (ip), vehicle: saline with Tween-80)?
A: 9 of 10

Q: With `CC1=CCC[C@@H]2C1(C)CCC(C)[C@@]2(C)CC1=CC(=O)C=CC1=O` (stereo not given in full) as the compound, how does the survivor count (dose: 2.5 mg/kg/injection, schedule: Q01DX009 (ip), vehicle: Klucel (hydroxypropylcellulose) (HPC)) read?
A: 10 of 10

Q: What about the survivor count (dose: 5.0 mg/kg/injection, schedule: Q01DX009 (ip), vehicle: Klucel (hydroxypropylcellulose) (HPC)) of the same compound?
A: 10 of 10

Q: What about the survivor count (dose: 10.0 mg/kg/injection, schedule: Q01DX009 (ip), vehicle: Klucel (hydroxypropylcellulose) (HPC)) of the same compound?
A: 10 of 10

Q: `CC(C)(C)OC(=O)NC(Cc1c[nH]c2ccccc12)C(=O)O` (stereo not given) was tested. Which survivor count (dose: 400.0 mg/kg/injection, schedule: Q01DX009 (ip), vehicle: distilled water + alcohol) did it give?
A: 10 of 10
